# Earlier results, collected in patent US20240124443A1, “PLASMIN INHIBITOR, PREPARATION METHOD THEREFOR, AND APPLICATION THEREOF” (SCINNOHUB PHARMACEUTICAL CO., LTD, priority 2021, published 2024).
# At least one compound was matched to its structure with a doubt left.
# Test system: fibrinolysis
# Settings: stronger than aminocaproic acid; cited from earlier work
compound,measurement,value
NCc1ccc(C(=O)O)cc1 [aminomethylbenzoic acid],effect relative to aminocaproic acid,4 to 5 times
